Results as given in PMC6494879, “Drug resistance emergence in macaques administered cabotegravir long-acting for pre-exposure prophylaxis during acute SHIV infection” (Nature Communications, 2019).
The source gives many values for each of these; only a part stands here.

System: RT-SHIV
Test: Plasma SHIV RNA (RT-PCR) in RT-SHIV-infected macaques treated with CAB LA

Which results are given for `C[C@H]1CO[C@@H]2Cn3cc(C(=O)NCc4ccc(F)cc4F)c(=O)c(O)c3C(=O)N12` [CAB, cabotegravir]?
SHIV RNA copies/ml (macaque 33996, day 204): 564 copies/ml; SHIV RNA copies/ml (macaque 35451, day 0): 49 copies/ml; SHIV RNA copies/ml (macaque 35451, day 2): 19312 copies/ml; SHIV RNA copies/ml (macaque 35451, day 4): 183825 copies/ml; SHIV RNA copies/ml (macaque 35451, day 7): 932430 copies/ml; SHIV RNA copies/ml (macaque 35451, day 9): 6901147 copies/ml; SHIV RNA copies/ml (macaque 35451, day 11): 5098254 copies/ml; SHIV RNA copies/ml (macaque 35451, day 71): 49 copies/ml; SHIV RNA copies/ml (macaque 35451, day 74): 49 copies/ml; SHIV RNA copies/ml (macaque 35451, day 78): 104 copies/ml; SHIV RNA copies/ml (macaque 35451, day 81): 42 copies/ml; SHIV RNA copies/ml (macaque 35451, day 85): 49 copies/ml; SHIV RNA copies/ml (macaque 35451, day 88): 49 copies/ml; SHIV RNA copies/ml (macaque 35451, day 92): 49 copies/ml; SHIV RNA copies/ml (macaque 35451, day 95): 49 copies/ml; SHIV RNA copies/ml (macaque 35451, day 102): 44 copies/ml; SHIV RNA copies/ml (macaque 35451, day 106): 49 copies/ml; SHIV RNA copies/ml (macaque 35451, day 115): 49 copies/ml; SHIV RNA copies/ml (macaque 35451, day 120): 538 copies/ml; SHIV RNA copies/ml (macaque 35451, day 134): 1833 copies/ml; SHIV RNA copies/ml (macaque 35451, day 143): 49 copies/ml; SHIV RNA copies/ml (macaque 35451, day 148): 49 copies/ml; SHIV RNA copies/ml (macaque 35451, day 155): 49 copies/ml; SHIV RNA copies/ml (macaque 35451, day 162): 158 copies/ml; SHIV RNA copies/ml (macaque 35451, day 170): 214 copies/ml; SHIV RNA copies/ml (macaque 35451, day 176): 49 copies/ml; SHIV RNA copies/ml (macaque 35451, day 183): 142 copies/ml; SHIV RNA copies/ml (macaque 35451, day 190): 209 copies/ml; SHIV RNA copies/ml (macaque 35451, day 197): 49 copies/ml; SHIV RNA copies/ml (macaque 35451, day 204): 49 copies/ml; SHIV RNA copies/ml (macaque CH54, day 0): 49 copies/ml; SHIV RNA copies/ml (macaque CH54, day 2): 45495 copies/ml; SHIV RNA copies/ml (macaque CH54, day 4): 209981 copies/ml; SHIV RNA copies/ml (macaque CH54, day 7): 417410 copies/ml; SHIV RNA copies/ml (macaque CH54, day 9): 6988208 copies/ml; SHIV RNA copies/ml (macaque CH54, day 11): 4265928 copies/ml; SHIV RNA copies/ml (macaque CH54, day 71): 1282 copies/ml; SHIV RNA copies/ml (macaque CH54, day 74): 473 copies/ml; SHIV RNA copies/ml (macaque CH54, day 78): 502 copies/ml; SHIV RNA copies/ml (macaque CH54, day 81): 696 copies/ml; SHIV RNA copies/ml (macaque CH54, day 85): 596 copies/ml; SHIV RNA copies/ml (macaque CH54, day 88): 1057 copies/ml; SHIV RNA copies/ml (macaque CH54, day 92): 4226 copies/ml; SHIV RNA copies/ml (macaque CH54, day 95): 3496 copies/ml; SHIV RNA copies/ml (macaque CH54, day 102): 4845 copies/ml; SHIV RNA copies/ml (macaque CH54, day 106): 6130 copies/ml; SHIV RNA copies/ml (macaque CH54, day 115): 11911 copies/ml; SHIV RNA copies/ml (macaque CH54, day 120): 31403 copies/ml; SHIV RNA copies/ml (macaque CH54, day 134): 191398 copies/ml; SHIV RNA copies/ml (macaque CH54, day 143): 237292 copies/ml; SHIV RNA copies/ml (macaque CH54, day 148): 248416 copies/ml; SHIV RNA copies/ml (macaque CH54, day 155): 193010 copies/ml; SHIV RNA copies/ml (macaque CH54, day 162): 381752 copies/ml; SHIV RNA copies/ml (macaque CH54, day 170): 723681 copies/ml; SHIV RNA copies/ml (macaque CH54, day 176): 865804 copies/ml; SHIV RNA copies/ml (macaque CH54, day 183): 675825 copies/ml; SHIV RNA copies/ml (macaque CH54, day 190): 628830 copies/ml; SHIV RNA copies/ml (macaque CH54, day 197): 268555 copies/ml; SHIV RNA copies/ml (macaque CH54, day 204): 486811 copies/ml; SHIV RNA copies/ml (macaque CJ92, day 0): 49 copies/ml; SHIV RNA copies/ml (macaque CJ92, day 2): 2447 copies/ml; SHIV RNA copies/ml (macaque CJ92, day 4): 125508 copies/ml; SHIV RNA copies/ml (macaque CJ92, day 7): 154624 copies/ml; SHIV RNA copies/ml (macaque CJ92, day 9): 3967166 copies/ml; SHIV RNA copies/ml (macaque CJ92, day 11): 4311448 copies/ml; SHIV RNA copies/ml (macaque CJ92, day 71): 56 copies/ml; SHIV RNA copies/ml (macaque CJ92, day 74): 49 copies/ml; SHIV RNA copies/ml (macaque CJ92, day 78): 49 copies/ml; SHIV RNA copies/ml (macaque CJ92, day 81): 49 copies/ml; SHIV RNA copies/ml (macaque CJ92, day 85): 49 copies/ml; SHIV RNA copies/ml (macaque CJ92, day 88): 43 copies/ml; SHIV RNA copies/ml (macaque CJ92, day 92): 49 copies/ml; SHIV RNA copies/ml (macaque CJ92, day 95): 142 copies/ml; SHIV RNA copies/ml (macaque CJ92, day 102): 49 copies/ml; SHIV RNA copies/ml (macaque CJ92, day 106): 49 copies/ml; SHIV RNA copies/ml (macaque CJ92, day 115): 49 copies/ml; SHIV RNA copies/ml (macaque CJ92, day 120): 49 copies/ml; SHIV RNA copies/ml (macaque CJ92, day 134): 282 copies/ml; SHIV RNA copies/ml (macaque CJ92, day 143): 2021 copies/ml; SHIV RNA copies/ml (macaque CJ92, day 148): 94 copies/ml; SHIV RNA copies/ml (macaque CJ92, day 155): 49 copies/ml; SHIV RNA copies/ml (macaque CJ92, day 162): 49 copies/ml; SHIV RNA copies/ml (macaque CJ92, day 170): 49 copies/ml; SHIV RNA copies/ml (macaque CJ92, day 176): 209 copies/ml; SHIV RNA copies/ml (macaque CJ92, day 183): 49 copies/ml; SHIV RNA copies/ml (macaque CJ92, day 190): 49 copies/ml; SHIV RNA copies/ml (macaque CJ92, day 197): 113 copies/ml; SHIV RNA copies/ml (macaque CJ92, day 204): 49 copies/ml
